Results deposited as PubChem BioAssay AID720505 (Drosophila RNAi Screening Center, 2013).

Aim: 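Fly regulators or components of the CRAC channel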 (primary screen)
System: Drosophila S2R+ cells
Reagent: long dsRNA against Drosophila genes
Conditions: thapsigargin (2 µM) in calcium-free buffer to empty internal stores, then 2 mM calcium added back
Measured: 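Stores emptied by 2 µM thapsigargin without calcium, then 2 mM calcium re-added; fluo-4 fluorescence followed by FLIPR in 384-well plates, per-well averaged endpoint, raw; two screen passes, some wells retested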
Reading the numbers: calcium signal and retest calcium signal: higher = more calcium entry after store depletion
Call rule: 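Knock-downs counted as hits when calcium entry dropped relative to STIM1 positive and Rho1 negative controls present on each plate; roughly 1500 genes called, with reductions of differing size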
Calls: active = called as lowering calcium entry; inactive = not called
The deposit covers about 20,000 reagents; below is an unselected part of those that have a named target and a result. Over the whole deposit, about 2,100 (10%) are marked active. 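Raw plate signals without normalisation; calls rest on control-based scores that were not deposited; replicate 2 separates called from uncalled poorly.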 A plus sign joins genes that one reagent is predicted to hit. Reagent sequences are not shown. Not stated in the record: the amount of reagent, the time to read-out.

Lsp2 (Larval serum protein 2) [DRSC09841]: calcium signal, replicate 1 = 96.7; calcium signal, replicate 2 = 97.3; activity call = inactive
Lsp2 (Larval serum protein 2) [DRSC11216]: calcium signal, replicate 1 = 96.1; calcium signal, replicate 2 = 87.5; activity call = inactive
CG33099 [DRSC15774]: calcium signal, replicate 1 = 203; calcium signal, replicate 2 = 295; activity call = inactive
Nrx-IV (Neurexin IV) [DRSC11238]: calcium signal, replicate 1 = 93.5; calcium signal, replicate 2 = 83.6; activity call = inactive
CG8460 [DRSC03090]: calcium signal, replicate 1 = 125; calcium signal, replicate 2 = 188; activity call = inactive
Lis-1 (Lissencephaly-1) [DRSC07459]: calcium signal, replicate 1 = 115; calcium signal, replicate 2 = 145; activity call = inactive
garz (gartenzwerg) [DRSC07193]: calcium signal, replicate 1 = 158; calcium signal, replicate 2 = 132; activity call = inactive
FASN1 (Fatty acid synthase 1) [DRSC00268]: calcium signal, replicate 1 = 131; calcium signal, replicate 2 = 184; activity call = inactive
x16 (x16 splicing factor) [DRSC00960]: calcium signal, replicate 1 = 69.2; calcium signal, replicate 2 = 135; activity call = inactive
x16 (x16 splicing factor) [DRSC03638]: calcium signal, replicate 1 = 97.3; calcium signal, replicate 2 = 155; activity call = inactive
CG6961 + CG18259 [DRSC19799]: calcium signal, replicate 1 = 86.2; calcium signal, replicate 2 = 93.6; activity call = inactive
CG6961 + CG18259 [DRSC20019]: calcium signal, replicate 1 = 157; calcium signal, replicate 2 = 128; activity call = inactive
CG16894 [DRSC06634]: calcium signal, replicate 1 = 139; calcium signal, replicate 2 = 133; retest calcium signal, replicate 1 = 131; retest calcium signal, replicate 2 = 112; activity call = inactive
CG16894 [DRSC21785]: calcium signal, replicate 1 = 152; calcium signal, replicate 2 = 97.9; activity call = inactive
Pgant5 (Polypeptide N-Acetylgalactosaminyltransferase 5) [DRSC03149]: calcium signal, replicate 1 = 94.4; calcium signal, replicate 2 = 110; activity call = inactive
Ac3 (Adenylate cyclase 3) [DRSC03692]: calcium signal, replicate 1 = 189; calcium signal, replicate 2 = 115; activity call = inactive
Act87E (Actin 87E) [DRSC22578]: calcium signal, replicate 1 = 113; calcium signal, replicate 2 = 183; activity call = inactive
Ugt37B1 (UDP-glycosyltransferase family 37 member B1) [DRSC03225]: calcium signal, replicate 1 = 61.7; calcium signal, replicate 2 = 169; activity call = active
CG33310 [DRSC01897]: calcium signal, replicate 1 = 107; calcium signal, replicate 2 = 111; activity call = inactive
Cnx14D (Calnexin 14D) [DRSC20214]: calcium signal, replicate 1 = 103; calcium signal, replicate 2 = 95.8; activity call = inactive
CG10340 [DRSC14232]: calcium signal, replicate 1 = 163; calcium signal, replicate 2 = 263; activity call = inactive
CG7387 [DRSC10833]: calcium signal, replicate 1 = 109; calcium signal, replicate 2 = 88.3; activity call = inactive
CG17234 [DRSC00490]: calcium signal, replicate 1 = 151; calcium signal, replicate 2 = 129; activity call = inactive
crim (crimpled) [DRSC10573]: calcium signal, replicate 1 = 108; calcium signal, replicate 2 = 82.8; activity call = inactive
ana2 (anastral spindle 2) [DRSC05952]: calcium signal, replicate 1 = 149; calcium signal, replicate 2 = 132; activity call = inactive
CG15332 [DRSC18015]: calcium signal, replicate 1 = 168; calcium signal, replicate 2 = 123; activity call = inactive
Rcd4 (Reduction in Cnn dots 4) [DRSC02597]: calcium signal, replicate 1 = 168; calcium signal, replicate 2 = 186; activity call = inactive
HP4 (Heterochromatin protein 4) [DRSC10958]: calcium signal, replicate 1 = 100; calcium signal, replicate 2 = 153; activity call = inactive
CG10512 [DRSC11615]: calcium signal, replicate 1 = 110; calcium signal, replicate 2 = 93.1; activity call = inactive
CG42565 [DRSC04154]: calcium signal, replicate 1 = 105; calcium signal, replicate 2 = 146; activity call = inactive
CG12009 [DRSC08217]: calcium signal, replicate 1 = 86.2; calcium signal, replicate 2 = 95.5; activity call = inactive
CG15599 [DRSC19668]: calcium signal, replicate 1 = 116; calcium signal, replicate 2 = 159; activity call = inactive
gdrd (goddard) [DRSC10020]: calcium signal, replicate 1 = 92.8; calcium signal, replicate 2 = 118; activity call = inactive
ValRS (Valyl-tRNA synthetase) [DRSC06864]: calcium signal, replicate 1 = 164; calcium signal, replicate 2 = 144; activity call = inactive
CG14395 [DRSC14852]: calcium signal, replicate 1 = 141; calcium signal, replicate 2 = 112; activity call = inactive

Copied from the list:
Value for CG15332 [DRSC18015] under “activity call”: inactive
Entry for ana2 (anastral spindle 2) [DRSC05952] in “calcium signal, replicate 1”: 149
